These are yes or no findings as the source states them, for the method shown. Some binding calls cover weakened binding; strength is not graded here.
What was measured:
Test in all cases: FLISA, cytokine coated on polystyrene beads
[1] = target: T1, human IL-17A/IL-17F heterodimer (human) (UniProt Q16552+Q96PD4)
T1 sequence (looked up) 1: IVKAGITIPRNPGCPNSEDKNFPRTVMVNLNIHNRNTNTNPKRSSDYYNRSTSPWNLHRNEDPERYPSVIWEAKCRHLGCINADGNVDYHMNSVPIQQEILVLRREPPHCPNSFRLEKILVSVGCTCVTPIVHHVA
T1 sequence (looked up) 2: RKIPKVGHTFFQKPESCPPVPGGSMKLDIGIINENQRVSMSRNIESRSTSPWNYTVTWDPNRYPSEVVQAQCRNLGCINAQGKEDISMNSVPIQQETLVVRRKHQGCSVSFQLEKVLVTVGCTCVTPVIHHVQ

Chains of the proteins cited; added tags and fusions are not shown. Lines headed by an entry give the natural chain unless they say otherwise; changes in a name come on top. A line that says so, or that is headed by a name, gives the form on record, which may keep a tag or linker.
cynomolgus IL-17F homodimer, His-tagged (G7P4V0, form named): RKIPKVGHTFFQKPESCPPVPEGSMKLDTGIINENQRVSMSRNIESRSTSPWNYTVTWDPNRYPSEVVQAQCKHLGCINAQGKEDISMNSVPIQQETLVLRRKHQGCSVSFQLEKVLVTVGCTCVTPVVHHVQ

[2] = target: cynomolgus IL-17A/IL-17F heterodimer (cynomolgus)
[3] = target: cynomolgus IL-17F homodimer, His-tagged (cynomolgus) (UniProt G7P4V0)

Measured: binding

B1: 11C5 antibody (antibody, V domains shown)
VH: QVQLVQSGAEVKKPGASVKVSCKASGYTFTIYYLHWVRQAPGQGLEWMGIINPSGGRTNYAQKFQGRVTMTRDPSTNTVYMELSSLTSEDAAVYYCARGEFSSGWLDYWGQGTTVTVSS
VL: DIQMTQSPSSVSASVGDRVTITCRASQGISSWLAWYQHKPGKAPKLLIYAASSLQSGVPSRFSGSGSGTDFTLTISSLQPEDFATYYCQQANSFPLTFGGGTKVEIK
binds: all assays above

B2: 1F1 antibody (antibody, V domains shown)
VH: EVQLLESGGGLVQPGGSLRLSCAASGFTFSSYVMSWVRQVPGKGLEWVSAISGRGGNTFYADSVKGRFTISRDNSKNTLYLQMDSLRAEDTAVYYCAKDDRRIAAGSFDYWGQGTTVTVSS
VL: AIQLTQSPSSLSASVGDRVTITCRASQGISSALAWYQQKPGKAPKLLIYDVSSLESGVPSRFSGSGSGTDFTLTISSLQPEDFATYYCQQFNSYPLTFGGGTKVEIK
binds: all assays above

B3: 28B11 antibody (antibody, V domains shown)
VH: QVQLVESGGGLVKPGGSLRLSCAASGFTFSNYYMTWIRQAPGKGLEWISYISSTGGNIYYADSVKGRFTISRDNAQNSLYLQMNSLRAEDTAVYYCARDGGVIISTAMFDYWGQGTTVTVSS
VL: AIQLTQSPSSLSASVGDRVTITCRASQGISSALAWYQQKPGKAPKLLIYDASSLESGVPSRLSGSGSGTDFTLTISSLQPEDFATYYCQQFNSYPLTFGGGTKVEIK
binds: all assays above

B4: 5D3 antibody (antibody, V domains shown)
VH: EVQLVESGGGLVQPGRSLRLSCAASGFTFDDYAMHWVRQAPGKGLEWVSGISWNSGSRGYADSVKGRFTISRDNAKNSLYLQMNSLRAEDTALYYCAKDMVYALDVWGQGTTVTVSS
VL: EIVLTQSPGTLSLSPGERATLSCRASQSFSGSYLAWYQQKPGQAPRLLIYDTSSRATGIPDRFSGSGSGTDFTLTISRLEPEDFAVYYCQQYGTWTFGQGTKVEIK
binds: all assays above

Reference: patent publication US20150132314A1
